The other results are listed elsewhere or left out.
Legend:
Assay in all cases: log2 fold change, soluble protein after heating vs DMSO (PISA); higher = thermal stabilisation; K562 cells, 10 uM, 30 min; active = over 0.2 and 3.5 SD of the protein, either way, in both replicates (recomputed)
[1] = compound: CS(=O)(=O)c1ccc(-c2cnc(N)c(C(=O)Nc3ccccc3)n2)cc1
How it was run: (§1)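 Soluble protein was defined as the supernatant after 21,000xg for 90 min. It came from K562 cells at 2×10^6 cells/mL given 10 μM compound for 30 min, heated in aliquots for 3 min across 48°C-58°C, pooled, and extracted in PBS with 0.5% NP-40 at 4°C, and was quantified by TMTpro 16plex LC-MS/MS with equalised channel sums. Thermal stability against control samples, from duplicates, is reported as log2 fold change.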

The chains behind the UniProt entries cited, without tags or fusion partners. Where a name states a change or a piece, a line headed by the entry shows the natural chain unless it says otherwise.
UniProt Q5I7T1: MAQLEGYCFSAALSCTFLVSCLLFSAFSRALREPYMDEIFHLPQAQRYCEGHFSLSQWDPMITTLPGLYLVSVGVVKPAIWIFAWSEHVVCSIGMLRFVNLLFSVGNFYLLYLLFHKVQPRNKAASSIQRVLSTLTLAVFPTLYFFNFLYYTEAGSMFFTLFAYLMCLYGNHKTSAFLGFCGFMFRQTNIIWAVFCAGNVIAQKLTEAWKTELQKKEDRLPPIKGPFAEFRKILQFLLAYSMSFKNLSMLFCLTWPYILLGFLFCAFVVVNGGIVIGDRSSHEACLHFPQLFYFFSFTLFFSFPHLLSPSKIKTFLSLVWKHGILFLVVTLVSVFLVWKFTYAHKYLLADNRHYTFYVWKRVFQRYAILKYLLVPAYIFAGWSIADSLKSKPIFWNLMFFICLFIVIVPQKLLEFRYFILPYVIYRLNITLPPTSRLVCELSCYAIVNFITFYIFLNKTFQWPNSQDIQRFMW
UniProt P04075: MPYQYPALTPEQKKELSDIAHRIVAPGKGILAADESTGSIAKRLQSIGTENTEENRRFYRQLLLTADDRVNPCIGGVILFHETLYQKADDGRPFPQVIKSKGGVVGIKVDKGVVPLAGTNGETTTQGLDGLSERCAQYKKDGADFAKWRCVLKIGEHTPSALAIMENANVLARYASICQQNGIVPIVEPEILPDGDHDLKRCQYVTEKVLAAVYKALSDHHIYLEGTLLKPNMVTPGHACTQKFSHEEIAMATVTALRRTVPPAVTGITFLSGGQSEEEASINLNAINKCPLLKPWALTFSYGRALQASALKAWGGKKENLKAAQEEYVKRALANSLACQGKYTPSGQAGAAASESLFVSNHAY
UniProt Q9BT22: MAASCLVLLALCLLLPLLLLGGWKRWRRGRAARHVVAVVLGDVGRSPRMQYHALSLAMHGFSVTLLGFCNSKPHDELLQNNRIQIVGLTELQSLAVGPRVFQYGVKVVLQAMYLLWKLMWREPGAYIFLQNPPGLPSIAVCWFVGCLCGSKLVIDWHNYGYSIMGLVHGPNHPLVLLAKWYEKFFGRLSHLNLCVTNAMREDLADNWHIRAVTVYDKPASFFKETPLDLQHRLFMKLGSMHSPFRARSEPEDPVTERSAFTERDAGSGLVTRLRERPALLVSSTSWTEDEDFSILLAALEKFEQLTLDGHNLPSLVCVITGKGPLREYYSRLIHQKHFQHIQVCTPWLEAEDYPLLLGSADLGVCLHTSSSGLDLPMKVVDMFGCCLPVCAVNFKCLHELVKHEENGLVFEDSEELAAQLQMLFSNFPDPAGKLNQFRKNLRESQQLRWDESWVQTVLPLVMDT
UniProt Q53H80, whole entry, looked up: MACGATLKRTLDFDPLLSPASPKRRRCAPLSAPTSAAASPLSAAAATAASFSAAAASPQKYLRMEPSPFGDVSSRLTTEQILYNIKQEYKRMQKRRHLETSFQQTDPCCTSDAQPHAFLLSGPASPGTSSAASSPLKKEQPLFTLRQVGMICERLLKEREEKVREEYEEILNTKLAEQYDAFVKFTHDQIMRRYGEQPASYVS
UniProt Q96HN2, whole entry, looked up: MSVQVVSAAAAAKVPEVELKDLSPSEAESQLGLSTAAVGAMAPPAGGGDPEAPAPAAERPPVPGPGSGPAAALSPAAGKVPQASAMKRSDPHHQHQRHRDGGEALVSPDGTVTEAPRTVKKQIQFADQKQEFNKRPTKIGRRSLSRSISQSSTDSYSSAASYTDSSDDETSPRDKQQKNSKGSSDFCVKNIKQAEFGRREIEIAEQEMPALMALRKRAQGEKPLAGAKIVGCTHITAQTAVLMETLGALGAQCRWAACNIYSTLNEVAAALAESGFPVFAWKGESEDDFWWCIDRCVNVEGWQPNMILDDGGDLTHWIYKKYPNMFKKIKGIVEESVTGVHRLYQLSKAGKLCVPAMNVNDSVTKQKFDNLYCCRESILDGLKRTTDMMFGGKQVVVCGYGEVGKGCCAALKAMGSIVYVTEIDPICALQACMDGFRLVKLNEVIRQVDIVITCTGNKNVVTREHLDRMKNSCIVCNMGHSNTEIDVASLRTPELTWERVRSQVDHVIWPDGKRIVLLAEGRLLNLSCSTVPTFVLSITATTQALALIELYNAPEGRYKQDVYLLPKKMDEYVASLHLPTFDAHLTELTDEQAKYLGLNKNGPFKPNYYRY
UniProt P23526: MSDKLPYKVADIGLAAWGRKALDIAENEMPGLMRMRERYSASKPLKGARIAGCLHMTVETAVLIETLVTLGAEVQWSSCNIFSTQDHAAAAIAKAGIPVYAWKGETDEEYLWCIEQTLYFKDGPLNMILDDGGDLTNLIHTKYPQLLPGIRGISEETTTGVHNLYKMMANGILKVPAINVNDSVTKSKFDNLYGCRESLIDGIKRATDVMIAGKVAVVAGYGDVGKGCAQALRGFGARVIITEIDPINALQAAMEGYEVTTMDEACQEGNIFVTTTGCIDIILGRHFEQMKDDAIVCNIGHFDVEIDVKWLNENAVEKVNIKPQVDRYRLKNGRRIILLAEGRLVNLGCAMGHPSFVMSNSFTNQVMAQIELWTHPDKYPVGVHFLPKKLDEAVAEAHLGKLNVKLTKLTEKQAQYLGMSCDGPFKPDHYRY
UniProt Q96BT7: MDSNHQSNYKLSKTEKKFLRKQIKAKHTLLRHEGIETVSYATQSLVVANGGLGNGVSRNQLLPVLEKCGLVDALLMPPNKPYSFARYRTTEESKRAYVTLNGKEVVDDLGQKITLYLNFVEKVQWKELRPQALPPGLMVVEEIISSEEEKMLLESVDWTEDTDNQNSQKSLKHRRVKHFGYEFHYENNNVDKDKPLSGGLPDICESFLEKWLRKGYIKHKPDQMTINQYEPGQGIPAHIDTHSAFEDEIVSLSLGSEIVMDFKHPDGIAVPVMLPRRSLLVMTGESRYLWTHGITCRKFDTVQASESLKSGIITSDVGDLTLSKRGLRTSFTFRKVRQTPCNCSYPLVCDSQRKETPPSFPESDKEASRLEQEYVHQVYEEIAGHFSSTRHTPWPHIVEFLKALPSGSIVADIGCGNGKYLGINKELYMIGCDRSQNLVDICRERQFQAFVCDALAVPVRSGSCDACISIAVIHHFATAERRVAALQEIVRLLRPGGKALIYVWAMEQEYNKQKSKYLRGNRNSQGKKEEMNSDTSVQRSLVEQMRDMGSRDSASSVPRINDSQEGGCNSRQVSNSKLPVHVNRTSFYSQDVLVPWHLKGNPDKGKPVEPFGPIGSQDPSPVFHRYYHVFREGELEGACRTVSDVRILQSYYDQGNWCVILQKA
UniProt O43488: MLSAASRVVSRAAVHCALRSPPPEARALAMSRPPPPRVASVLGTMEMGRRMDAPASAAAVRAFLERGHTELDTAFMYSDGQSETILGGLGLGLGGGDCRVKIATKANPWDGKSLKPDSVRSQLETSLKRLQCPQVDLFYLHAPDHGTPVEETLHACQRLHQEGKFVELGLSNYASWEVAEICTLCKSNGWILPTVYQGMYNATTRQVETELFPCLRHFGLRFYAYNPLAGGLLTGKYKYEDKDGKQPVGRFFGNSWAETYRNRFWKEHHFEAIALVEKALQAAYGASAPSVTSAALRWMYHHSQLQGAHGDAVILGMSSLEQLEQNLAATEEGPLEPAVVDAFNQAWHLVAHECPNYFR
UniProt P14550: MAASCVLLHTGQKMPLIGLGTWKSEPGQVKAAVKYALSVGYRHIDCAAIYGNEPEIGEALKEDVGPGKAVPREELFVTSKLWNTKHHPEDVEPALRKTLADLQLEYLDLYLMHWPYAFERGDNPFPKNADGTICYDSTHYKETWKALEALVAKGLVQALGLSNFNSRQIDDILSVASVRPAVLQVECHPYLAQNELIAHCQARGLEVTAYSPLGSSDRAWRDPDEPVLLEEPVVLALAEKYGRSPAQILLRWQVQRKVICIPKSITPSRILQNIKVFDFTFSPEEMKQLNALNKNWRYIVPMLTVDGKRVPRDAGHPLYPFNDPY
UniProt Q02952: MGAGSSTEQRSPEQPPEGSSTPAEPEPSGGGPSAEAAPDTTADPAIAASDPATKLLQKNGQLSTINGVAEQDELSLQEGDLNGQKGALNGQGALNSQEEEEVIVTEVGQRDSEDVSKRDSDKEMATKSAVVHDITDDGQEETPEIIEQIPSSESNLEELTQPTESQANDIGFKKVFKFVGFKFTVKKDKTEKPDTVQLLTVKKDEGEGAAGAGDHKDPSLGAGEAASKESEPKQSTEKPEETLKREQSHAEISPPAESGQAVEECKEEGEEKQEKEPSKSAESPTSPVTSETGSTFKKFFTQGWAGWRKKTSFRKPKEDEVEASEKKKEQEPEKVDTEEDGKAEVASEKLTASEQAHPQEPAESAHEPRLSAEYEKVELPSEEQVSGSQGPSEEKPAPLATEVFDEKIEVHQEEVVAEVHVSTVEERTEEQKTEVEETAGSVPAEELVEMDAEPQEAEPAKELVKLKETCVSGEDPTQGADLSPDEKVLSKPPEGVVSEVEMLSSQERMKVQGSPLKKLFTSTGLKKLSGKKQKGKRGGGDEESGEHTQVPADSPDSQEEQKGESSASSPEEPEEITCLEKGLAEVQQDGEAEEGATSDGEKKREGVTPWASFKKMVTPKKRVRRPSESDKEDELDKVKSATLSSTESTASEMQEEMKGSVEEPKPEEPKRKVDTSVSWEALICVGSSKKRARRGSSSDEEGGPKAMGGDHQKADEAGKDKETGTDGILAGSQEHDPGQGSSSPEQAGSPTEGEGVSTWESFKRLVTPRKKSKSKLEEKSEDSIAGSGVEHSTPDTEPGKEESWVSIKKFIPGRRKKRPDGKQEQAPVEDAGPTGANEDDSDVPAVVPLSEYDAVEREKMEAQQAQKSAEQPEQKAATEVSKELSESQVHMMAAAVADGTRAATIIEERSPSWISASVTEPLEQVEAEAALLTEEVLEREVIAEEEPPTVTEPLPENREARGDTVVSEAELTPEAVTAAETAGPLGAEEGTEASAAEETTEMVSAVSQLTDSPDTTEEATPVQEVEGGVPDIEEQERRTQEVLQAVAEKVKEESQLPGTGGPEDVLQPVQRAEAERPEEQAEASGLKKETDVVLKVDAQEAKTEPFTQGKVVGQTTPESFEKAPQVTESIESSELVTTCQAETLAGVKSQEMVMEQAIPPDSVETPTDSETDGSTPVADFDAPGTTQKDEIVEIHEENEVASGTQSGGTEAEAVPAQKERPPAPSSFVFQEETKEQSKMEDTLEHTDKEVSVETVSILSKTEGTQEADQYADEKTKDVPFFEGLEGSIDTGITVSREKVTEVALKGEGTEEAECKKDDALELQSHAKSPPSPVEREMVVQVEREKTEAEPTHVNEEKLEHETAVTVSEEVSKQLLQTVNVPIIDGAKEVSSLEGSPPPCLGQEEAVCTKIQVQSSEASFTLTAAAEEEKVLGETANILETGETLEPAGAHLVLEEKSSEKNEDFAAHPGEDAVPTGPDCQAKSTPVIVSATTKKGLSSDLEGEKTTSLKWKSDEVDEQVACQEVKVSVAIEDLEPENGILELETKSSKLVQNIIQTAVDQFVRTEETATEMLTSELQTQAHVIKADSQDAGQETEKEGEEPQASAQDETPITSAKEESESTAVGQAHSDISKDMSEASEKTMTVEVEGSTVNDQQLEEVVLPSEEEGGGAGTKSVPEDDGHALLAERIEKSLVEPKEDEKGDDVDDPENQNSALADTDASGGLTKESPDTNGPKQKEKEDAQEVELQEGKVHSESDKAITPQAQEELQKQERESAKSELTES
UniProt Q9BVK2: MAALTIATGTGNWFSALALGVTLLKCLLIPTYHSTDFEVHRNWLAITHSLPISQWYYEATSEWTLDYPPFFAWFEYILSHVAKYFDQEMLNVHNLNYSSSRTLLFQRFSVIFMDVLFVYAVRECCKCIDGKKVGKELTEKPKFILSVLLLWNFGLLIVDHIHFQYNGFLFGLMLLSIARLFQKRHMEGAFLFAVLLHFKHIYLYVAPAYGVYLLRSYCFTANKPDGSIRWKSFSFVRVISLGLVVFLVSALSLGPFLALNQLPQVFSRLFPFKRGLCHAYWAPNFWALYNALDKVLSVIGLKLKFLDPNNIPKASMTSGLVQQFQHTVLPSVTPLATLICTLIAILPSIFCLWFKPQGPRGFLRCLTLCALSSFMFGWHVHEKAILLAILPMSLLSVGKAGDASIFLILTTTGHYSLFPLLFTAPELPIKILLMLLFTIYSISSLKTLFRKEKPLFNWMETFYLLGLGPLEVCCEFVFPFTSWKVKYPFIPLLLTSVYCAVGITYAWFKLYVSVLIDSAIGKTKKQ

crizotinib = compound: C[C@@H](Oc1cc(-c2cnn(C3CCNCC3)c2)cnc1N)c1c(Cl)ccc(F)c1Cl [crizotinib]
How it was run: as §1

[2] = compound: C[C@@H]1COCCN1C2=NC(=NC(=C2)C3(CC3)S(=O)(=O)C)C4=C5C=CNC5=CC=C4
How it was run: as §1

[3] = compound: C[C@H](C1=CC=C(C=C1)C(=O)NC2=C3C=CNC3=NC=C2)N
How it was run: as §1

duvelisib = compound: C[C@H](Nc1ncnc2nc[nH]c12)c1cc2cccc(Cl)c2c(=O)n1-c1ccccc1 [duvelisib]
How it was run: as §1

gandotinib = compound: Cc1cc(Nc2cc(CN3CCOCC3)c3nc(C)c(Cc4ccc(Cl)cc4F)n3n2)n[nH]1 [gandotinib]
How it was run: as §1

tozasertib = compound: Cc1cc(Nc2cc(N3CCN(C)CC3)nc(Sc3ccc(NC(=O)C4CC4)cc3)n2)n[nH]1 [tozasertib]
How it was run: as §1

[4] = compound: Cc1cc(SCc2sc(-c3ccc(C(F)(F)F)cc3)nc2C)ccc1OCC(=O)O
How it was run: as §1

doramapimod = compound: Cc1ccc(-n2nc(C(C)(C)C)cc2NC(=O)Nc2ccc(OCCN3CCOCC3)c3ccccc23)cc1 [doramapimod]
How it was run: as §1

ispinesib = compound: Cc1ccc(C(=O)N(CCCN)[C@@H](c2nc3cc(Cl)ccc3c(=O)n2Cc2ccccc2)C(C)C)cc1 [ispinesib]
How it was run: as §1

Measured: log2 fold change

ALG10B (UniProt Q5I7T1)
inactive: [1] -0.048 | crizotinib -0.076 | [2] -0.048 | [3] -0.027 | duvelisib 0.003 | gandotinib -0.101 | tozasertib -0.024 | [4] 0.007 | doramapimod 0.091 | ispinesib -0.007

AK4 (UniProt P27144)
inactive: [1] 0.017 | crizotinib 0.088 | [2] 0.153 | [3] -0.071 | duvelisib 0.065 | gandotinib -0.039 | tozasertib -0.018 | [4] 0.012 | doramapimod 0.003 | ispinesib 0.041

ALDOA isoform 2 (UniProt P04075)
inactive: [1] -0.025 | crizotinib -0.012 | [2] -0.004 | [3] -0.088 | duvelisib 0.004 | gandotinib 0.01 | tozasertib -0.017 | [4] -0.031 | doramapimod -0.007 | ispinesib 0.02

AK1 (UniProt P00568)
inactive: [1] 0.06 | crizotinib -0.038 | [2] 0.131 | [3] 0.012 | duvelisib 0.068 | gandotinib 0.003 | tozasertib -0.029 | [4] 0.032 | doramapimod -0.06 | ispinesib 0.077

ALG1 (UniProt Q9BT22)
inactive: [1] 0.032 | crizotinib 0.081 | [2] -0.005 | [3] -0.037 | duvelisib -0.022 | gandotinib -0.082 | tozasertib 0.012 | [4] 0.021 | doramapimod 0.02 | ispinesib 0.1

AKIRIN2 (UniProt Q53H80)
inactive: [1] -0.101 | crizotinib -0.28 | [2] -0.308 | [3] -0.105 | duvelisib 0.028 | gandotinib -0.176 | tozasertib 0.062 | [4] 0.028 | doramapimod 0.037 | ispinesib -0.017

AGO2 (UniProt Q9UKV8)
inactive: [1] -0.073 | crizotinib 0.096 | [2] -0.034 | [3] 0.033 | duvelisib 0.028 | gandotinib 0.064 | tozasertib -0.001 | [4] 0.037 | doramapimod -0.056 | ispinesib 0.036

AHCYL2 (UniProt Q96HN2)
inactive: [1] 0.033 | crizotinib 0.053 | [2] 0.011 | [3] -0.033 | duvelisib 0.039 | gandotinib -0.026 | tozasertib -0.046 | [4] -0.034 | doramapimod -0.035 | ispinesib -0.002

AHCY (UniProt P23526)
inactive: [1] 0.006 | crizotinib 0.023 | [2] 0.017 | [3] -0.041 | duvelisib 0.01 | gandotinib 0.041 | tozasertib -0.028 | [4] -0.012 | doramapimod -0.025 | ispinesib 0.057

ANAPC1 (UniProt Q9H1A4)
inactive: [1] 0.02 | crizotinib -0.008 | [2] 0.002 | [3] 0.034 | duvelisib 0 | gandotinib -0.017 | tozasertib 0.02 | [4] 0.024 | doramapimod 0.003 | ispinesib 0.013

ALDOC (UniProt J3QKP5)
inactive: [1] 0.275 | crizotinib 0.106 | [2] -0.164 | [3] 0.394 | duvelisib 0 | gandotinib 0.258 | tozasertib -0.115 | [4] -0.348 | doramapimod -0.259 | ispinesib -0.537

AGPAT2 (UniProt O15120)
inactive: [1] -0.023 | crizotinib 0.008 | [2] 0.003 | [3] 0.003 | duvelisib -0.007 | gandotinib 0.018 | tozasertib 0 | [4] -0.062 | doramapimod 0.098 | ispinesib -0.081

AHNAK (UniProt Q09666)
inactive: [1] 0.01 | crizotinib 0.047 | [2] 0.042 | [3] -0.029 | duvelisib 0.001 | gandotinib 0.009 | tozasertib -0.01 | [4] -0.065 | doramapimod 0.012 | ispinesib 0.105

ALG9 isoform 3 (UniProt Q9H6U8)
inactive: [1] 0.117 | crizotinib -0.04 | [2] -0.054 | [3] 0.007 | duvelisib -0.005 | gandotinib -0.107 | tozasertib 0.021 | [4] -0.023 | doramapimod 0.049 | ispinesib 0.025

ALKBH2 (UniProt Q6NS38)
inactive: [1] -0.163 | crizotinib 0.032 | [2] -0.298 | [3] 0.192 | duvelisib -0.056 | gandotinib 0.163 | tozasertib -0.064 | [4] 0.068 | doramapimod 0.179 | ispinesib -0.173

ALKBH8 isoform 4 (UniProt Q96BT7)
inactive: [1] -0.059 | crizotinib 0.069 | [2] 0.143 | [3] 0.005 | duvelisib -0.067 | gandotinib -0.032 | [4] 0.243 | doramapimod 0.081

AFP (UniProt P02771)
inactive: [1] -0.249 | crizotinib -0.021 | [2] -0.136 | [3] 0.231 | duvelisib -0.39 | gandotinib 0.012 | tozasertib -0.06 | [4] -0.235 | doramapimod 0.207 | ispinesib -0.032

AK2 isoform 2 (UniProt P54819)
inactive: [1] 0.005 | crizotinib 0.037 | [2] 0.027 | [3] 0.015 | duvelisib 0.011 | gandotinib 0.009 | tozasertib -0.023 | [4] -0.037 | doramapimod 0 | ispinesib 0.004

AKR7A2 (UniProt O43488)
inactive: [1] -0.039 | crizotinib 0.011 | [2] 0.126 | [3] -0.182 | duvelisib -0.028 | gandotinib -0.032 | tozasertib -0.009 | [4] 0.052 | doramapimod -0.049 | ispinesib 0.011

AFG3L2 (UniProt Q9Y4W6)
inactive: [1] 0.009 | crizotinib 0.004 | [2] 0.053 | [3] -0.012 | duvelisib 0.043 | gandotinib -0.039 | tozasertib -0.014 | [4] 0.01 | doramapimod -0.011 | ispinesib -0.188

AKT1S1 isoform 3 (UniProt Q96B36)
inactive: [1] 0.031 | crizotinib 0.066 | [2] 0.058 | [3] 0.008 | duvelisib 0.16 | gandotinib 0.097 | tozasertib 0.008 | [4] 0 | doramapimod -0.005 | ispinesib 0.122

AMPD2 (UniProt Q01433)
inactive: [1] 0.015 | crizotinib 0.037 | [2] 0.048 | [3] -0.033 | duvelisib 0.025 | gandotinib -0.027 | tozasertib -0.025 | [4] -0.012 | doramapimod -0.005 | ispinesib 0.032

ALDH4A1 (UniProt P30038)
inactive: [1] 0.024 | crizotinib 0 | [2] 0.063 | [3] -0.126 | duvelisib 0.002 | gandotinib 0.036 | tozasertib -0.035 | [4] -0.008 | doramapimod 0.01 | ispinesib -0.084

AKR1A1 (UniProt P14550)
inactive: [1] 0.048 | crizotinib -0.006 | [2] 0.112 | [3] -0.094 | duvelisib 0.046 | gandotinib -0.065 | tozasertib -0.001 | [4] 0.006 | doramapimod 0.033 | ispinesib 0.028

Reprinted at random: 2 entries already listed, in no set order.
AK4 (UniProt P27144)
inactive: [1] 0.017 | crizotinib 0.088 | [2] 0.153 | [3] -0.071 | duvelisib 0.065 | gandotinib -0.039 | tozasertib -0.018 | [4] 0.012 | doramapimod 0.003 | ispinesib 0.041

AFP (UniProt P02771)
inactive: [1] -0.249 | crizotinib -0.021 | [2] -0.136 | [3] 0.231 | duvelisib -0.39 | gandotinib 0.012 | tozasertib -0.06 | [4] -0.235 | doramapimod 0.207 | ispinesib -0.032

The results go on.

AKAP12 (UniProt Q02952)
inactive: [1] 0.024 | crizotinib 0.033 | [2] -0.039 | [3] 0.048 | duvelisib 0.046 | gandotinib -0.033 | tozasertib -0.021 | [4] 0.053 | doramapimod -0.085 | ispinesib -0.049

AMPD3 isoform 4 (UniProt Q01432)
inactive: [1] 0.064 | crizotinib -0.065 | [2] 0.156 | [3] -0.051 | duvelisib 0.065 | gandotinib -0.057 | tozasertib -0.01 | [4] -0.002 | doramapimod 0.002 | ispinesib 0.002

ALG8 (UniProt Q9BVK2)
inactive: [1] 0.039 | crizotinib -0.055 | [2] 0.1 | [3] -0.015 | duvelisib -0.028 | gandotinib -0.046 | tozasertib 0.022 | [4] 0.034 | doramapimod -0.002 | ispinesib -0.128

AKR1B1 (UniProt P15121)
inactive: [1] 0.04 | crizotinib -0.047 | [2] 0.023 | [3] -0.092 | duvelisib 0.035 | gandotinib -0.02 | tozasertib -0.078 | [4] -0.01 | doramapimod 0.009 | ispinesib 0.03

ALDH16A1 (UniProt Q8IZ83)
inactive: [1] -0.006 | crizotinib 0.021 | [2] 0.069 | [3] -0.017 | duvelisib 0.028 | gandotinib 0.053 | tozasertib -0.035 | [4] -0.003 | doramapimod -0.016 | ispinesib 0.003

AGO4 (UniProt Q9HCK5)
inactive: [1] -0.072 | crizotinib 0.073 | [2] -0.084 | [3] 0.047 | duvelisib 0.038 | gandotinib -0.032 | tozasertib 0.022 | [4] 0.029 | doramapimod -0.044 | ispinesib -0.005

From the supplement of paper PMC10849652
